Earlier results as cited in US7217702B2, “Selective antagonists of A2A adenosine receptors” (Adenosine Therapeutics, LLC, priority 2004, dated 2007).
At least one compound was matched to its structure with a doubt left.

Conditions: photoisomerization E to Z; cited from earlier work

SMILES: CCn1c(=O)c2c(nc(/C=C/c3ccc(OC)c(OC)c3)n2C)n(CC)c1=O [KW6002]
- light sensitivity: light-sensitive
